The list shows only some results of the screen, not a fair sample: it gathers tests that were run many times, whatever their T/C, doses with no T/C, and many T/C values between a quarter and a half above the control. Further doses and runs are listed elsewhere. T/C gives the treated animals as a percentage of the vehicle group. Some entries give survivors of the animals treated and no T/C: the source holds a T/C of zero for them, seemingly a mark for toxic or unscored doses. Some doses without a T/C left all or most animals alive at the check, yet need not have been tolerated: the source hardly ever lists a survival T/C far under the control, and the zero likely stands for such cases as well. Survivors were counted at the toxicity check, usually on the fifth day, unless a day is given; later deaths do not show. Schedules are NCI's codes, read here as Q, the interval in days (D) or hours (H), X, the number of doses. Some schedules carry Z or #; the key to these is not given. Where survival is the endpoint, this PubChem deposit counts one and a half times the control or more as active, and values a quarter to a half above the control carry no call in these data; other NCI protocols may use other cut-offs. Some T/C values carry the count of animals alive at the toxicity check (mostly the fifth day); without a count, all were alive then. Some doses were run more than once; the results are listed from low to high.
Tested on: BDF1 mice, intracerebral L1210 leukemia, survival T/C
Assay: NCI In Vivo Anticancer Drug Screen. Data for tumor model L1210 Leukemia (intracerebral) in B6D2F1 (BDF1) mice
Conditions: higher T/C = longer survival
Method in brief: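 Tumour was transplanted, animals received compound or vehicle, then survival in each group was measured and treated divided by control.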

[1] = T/C endpoint: mean survival time, dose: 450.0 mg/kg/injection, schedule: Q01DX001 (ip), vehicle: carboxymethylcellulose (CMC)

`O=NN(CCBr)C(=O)NC1CCCCC1` was tested, and the T/C (T/C endpoint: mean survival time, dose: 200.0 mg/kg/injection, schedule: Q01DX001 (ip), vehicle: carboxymethylcellulose (CMC)) was 126 % of control, the T/C (T/C endpoint: mean survival time, dose: 230.0 mg/kg/injection, schedule: Q01DX001 (ip), vehicle: carboxymethylcellulose (CMC)) was 132 % of control and the T/C (T/C endpoint: mean survival time, dose: 300.0 mg/kg/injection, schedule: Q01DX001 (ip), vehicle: carboxymethylcellulose (CMC)) was 136 % of control. For the same compound, the survivor count [1] was 2 of 10 and the survivor count (T/C endpoint: mean survival time, dose: 500.0 mg/kg/injection, schedule: Q01DX001 (ip), vehicle: carboxymethylcellulose (CMC)) was 3 of 10.
In the case of `O=NN(CCCl)C(=O)NC1CCCCC1`, the T/C (T/C endpoint: mean survival time, dose: 4.0 mg/kg/injection, schedule: Q01DX009 (ip), vehicle: carboxymethylcellulose (CMC)) was 143 % of control, the T/C (T/C endpoint: mean survival time, dose: 4.0 mg/kg/injection, schedule: Q01DX Z (ip), vehicle: carboxymethylcellulose (CMC)) was 140 % of control and the T/C (T/C endpoint: mean survival time, dose: 8.0 mg/kg/injection, schedule: Q01DX Z (ip), vehicle: carboxymethylcellulose (CMC)) was 143 % of control. The T/C (T/C endpoint: mean survival time, dose: 10.0 mg/kg/injection, schedule: Q01DX001 (ip), vehicle: carboxymethylcellulose (CMC), evaluated on day 30) was 140 % of control, the T/C (T/C endpoint: mean survival time, dose: 10.0 mg/kg/injection, schedule: Q01DX001 (ip), vehicle: carboxymethylcellulose (CMC), evaluated on day 45) was 114, 117, 141 % of control and the T/C (T/C endpoint: mean survival time, dose: 12.5 mg/kg/injection, schedule: Q01DX001 (ip), vehicle: carboxymethylcellulose (CMC)) was 146 % of control [9 of 10 alive]. For the same compound, the T/C (T/C endpoint: mean survival time, dose: 18.0 mg/kg/injection, schedule: Q01DX001 (ip), vehicle: carboxymethylcellulose (CMC)) was 141 % of control, the T/C (T/C endpoint: mean survival time, dose: 18.5 mg/kg/injection, schedule: Q01DX001 (ip), vehicle: carboxymethylcellulose (CMC)) was 129 % of control and the T/C (T/C endpoint: mean survival time, dose: 20.0 mg/kg/injection, schedule: Q01DX001 (ip), vehicle: carboxymethylcellulose (CMC)) was 149 % of control. The T/C (T/C endpoint: mean survival time, dose: 21.0 mg/kg/injection, schedule: Q01DX001 (ip), vehicle: carboxymethylcellulose (CMC), evaluated on day 45) was 206 and 241 % of control, the T/C (T/C endpoint: mean survival time, dose: 21.0 mg/kg/injection, schedule: Q01DX001 (ip), vehicle: carboxymethylcellulose (CMC), run until all animals had died) was 126 and 144 % of control and the T/C (T/C endpoint: mean survival time, dose: 25.0 mg/kg/injection, schedule: Q01DX001 (ip), vehicle: carboxymethylcellulose (CMC)) was 150, 281, 284, 309 % of control. For the same compound, the T/C (T/C endpoint: mean survival time, dose: 31.0 mg/kg/injection, schedule: Q01DX Z (ip), vehicle: carboxymethylcellulose (CMC)) was 139 % of control, the T/C (T/C endpoint: mean survival time, dose: 32.0 mg/kg/injection, schedule: Q01DX009 (ip), vehicle: carboxymethylcellulose (CMC)) was 140 % of control [9 of 10 alive] and the T/C (T/C endpoint: mean survival time, dose: 40.0 mg/kg/injection, schedule: Q01DX001 (ip), vehicle: carboxymethylcellulose (CMC), evaluated on day 30) was 314 % of control. The T/C (T/C endpoint: mean survival time, dose: 40.0 mg/kg/injection, schedule: Q01DX001 (ip), vehicle: carboxymethylcellulose (CMC), evaluated on day 45) was 186 and 476 % of control, the T/C (T/C endpoint: mean survival time, dose: 40.0 mg/kg/injection, schedule: Q01DX001 (ip), vehicle: carboxymethylcellulose (CMC), run until all animals had died) was 379 % of control and the T/C (T/C endpoint: mean survival time, dose: 50.0 mg/kg/injection, schedule: Q01DX001 (ip), vehicle: carboxymethylcellulose (CMC), evaluated on day 45) was 415, 434 [9 of 10 alive], 497 % of control. The T/C (T/C endpoint: mean survival time, dose: 50.0 mg/kg/injection, schedule: Q01DX001 (ip), vehicle: carboxymethylcellulose (CMC), run until all animals had died) was 267, 282, 316, 330, 340 % of control, the survivor count (T/C endpoint: mean survival time, dose: 64.0 mg/kg/injection, schedule: Q01DX009 (ip), vehicle: carboxymethylcellulose (CMC)) was 10 of 10 and the T/C (T/C endpoint: mean survival time, dose: 70.0 mg/kg/injection, schedule: Q01DX001 (ip), vehicle: carboxymethylcellulose (CMC)) was 141 % of control [9 of 10 alive]. The survivor count (T/C endpoint: mean survival time, dose: 97.0 mg/kg/injection, schedule: Q01DX001 (oral), vehicle: carboxymethylcellulose (CMC)) was 10 of 10, the survivor count (T/C endpoint: mean survival time, dose: 125.0 mg/kg/injection, schedule: Q01DX Z (ip), vehicle: carboxymethylcellulose (CMC)) was 4 of 10 and the survivor count (T/C endpoint: mean survival time, dose: 144.0 mg/kg/injection, schedule: Q01DX001 (ip), vehicle: carboxymethylcellulose (CMC)) was 10 of 10. The survivor count (T/C endpoint: mean survival time, dose: 150.0 mg/kg/injection, schedule: Q01DX001 (ip), vehicle: carboxymethylcellulose (CMC)) was 10 of 10, the survivor count (T/C endpoint: mean survival time, dose: 160.0 mg/kg/injection, schedule: Q01DX001 (ip), vehicle: carboxymethylcellulose (CMC)) was 7 of 10 and the survivor count (T/C endpoint: mean survival time, dose: 225.0 mg/kg/injection, schedule: Q01DX001 (ip), vehicle: carboxymethylcellulose (CMC)) was 9 of 10. The survivor count (T/C endpoint: mean survival time, dose: 288.0 mg/kg/injection, schedule: Q01DX001 (ip), vehicle: carboxymethylcellulose (CMC)) was 4 of 10.
For `CC(=O)Nc1ccc2nc3ccc(NC(C)=O)cc3[n+](-c3ccccc3)c2c1`, the survivor count (T/C endpoint: mean survival time, dose: 375.0 mg/kg/injection, schedule: Q01DX Z (ip), vehicle: carboxymethylcellulose (CMC)) was 5 of 6, the survivor count (T/C endpoint: mean survival time, dose: 500.0 mg/kg/injection, schedule: Q01DX Z (ip), vehicle: carboxymethylcellulose (CMC)) was 3 of 6 and the survivor count (T/C endpoint: mean survival time, dose: 750.0 mg/kg/injection, schedule: Q01DX Z (ip), vehicle: carboxymethylcellulose (CMC)) was 6 of 6. For the same compound, the survivor count (T/C endpoint: mean survival time, dose: 1000.0 mg/kg/injection, schedule: Q01DX Z (ip), vehicle: carboxymethylcellulose (CMC)) was 5 of 6.
In the case of `CNC(=O)N(C)N=O`, the T/C (T/C endpoint: mean survival time, dose: 250.0 mg/kg/injection, schedule: Q01DX001 (ip), vehicle: carboxymethylcellulose (CMC)) was 138 % of control, the T/C [1] was 136 % of control [9 of 10 alive] and the survivor count (T/C endpoint: mean survival time, dose: 562.0 mg/kg/injection, schedule: Q01DX001 (ip), vehicle: carboxymethylcellulose (CMC)) was 1 of 10. The survivor count (T/C endpoint: mean survival time, dose: 900.0 mg/kg/injection, schedule: Q01DX001 (ip), vehicle: carboxymethylcellulose (CMC)) was 0 of 10 and the survivor count (T/C endpoint: mean survival time, dose: 1800.0 mg/kg/injection, schedule: Q01DX001 (ip), vehicle: carboxymethylcellulose (CMC)) was 0 of 10.
With `COc1cc(NS(C)(=O)=O)ccc1Nc1c2cccc(C)c2nc2c(C)cccc12` the T/C (T/C endpoint: mean survival time, dose: 12.5 mg/kg/injection, schedule: Q01DX009 (ip), vehicle: water) was 126 % of control, the survivor count (T/C endpoint: mean survival time, dose: 50.0 mg/kg/injection, schedule: Q01DX009 (ip), vehicle: water) was 7 of 10 and the T/C (T/C endpoint: mean survival time, dose: 400.0 mg/kg/injection, schedule: Q01DX001 (ip), vehicle: saline) was 126 % of control.
With `COc1ccc(NC(=O)N(CCCl)N=O)cc1` the survivor count (T/C endpoint: mean survival time, dose: 79.2 mg/kg/injection, schedule: Q01DX001 (ip), vehicle: carboxymethylcellulose (CMC)) was 10 of 10 and the survivor count (T/C endpoint: mean survival time, dose: 158.4 mg/kg/injection, schedule: Q01DX001 (ip), vehicle: carboxymethylcellulose (CMC)) was 1 of 10.
`CC(=O)OCC1OC(n2cnc3c(=S)nc(N)[nH]c32)C(OC(C)=O)C1OC(C)=O` (stereo not drawn) was tested, and the T/C (T/C endpoint: mean survival time, dose: 5.0 mg/kg/injection, schedule: Q01DX Z (ip), vehicle: other) was 130 % of control, the T/C (T/C endpoint: mean survival time, dose: 10.0 mg/kg/injection, schedule: Q01DX Z (ip), vehicle: other) was 140 % of control and the T/C (T/C endpoint: mean survival time, dose: 20.0 mg/kg/injection, schedule: Q01DX Z (ip), vehicle: other) was 145 % of control.
For `O=c1[nH]cc(F)c(=O)[nH]1`, the T/C (T/C endpoint: mean survival time, dose: 119.25 mg/kg/injection, schedule: Q01DX001 (ip), vehicle: carboxymethylcellulose (CMC)) was 132 % of control, the T/C (T/C endpoint: mean survival time, dose: 159.0 mg/kg/injection, schedule: Q01DX001 (ip), vehicle: carboxymethylcellulose (CMC)) was 130 % of control and the T/C (T/C endpoint: median survival time, dose: 23.0 mg/kg/injection, schedule: Q01DX009 (ip), vehicle: saline) was 128 % of control. The T/C (T/C endpoint: median survival time, dose: 65.0 mg/kg/injection, schedule: Q04DX003 (ip), vehicle: saline) was 142 % of control.
In the case of `O=NN(CCCl)C(=O)NC1[C@H](O)CCC[C@@H]1O` (stereo partly drawn), the T/C (T/C endpoint: mean survival time, dose: 6.0 mg/kg/injection, schedule: Q01DX001 (ip), vehicle: saline) was 137 % of control and the survivor count (T/C endpoint: mean survival time, dose: 33.0 mg/kg/injection, schedule: Q01DX001 (ip), vehicle: saline) was 8 of 10.
`COc1cccnc1/C=N/NC(N)=S` was tested, and the survivor count (T/C endpoint: median survival time, dose: 24.0 mg/kg/injection, schedule: Q01DX009 (ip), vehicle: saline with Tween-80) was 0 of 6.
With `CN(N=O)C(=O)NC(N)=O` the T/C (T/C endpoint: mean survival time, dose: 112.0 mg/kg/injection, schedule: Q01DX001 (ip), vehicle: carboxymethylcellulose (CMC)) was 125 % of control, the survivor count (T/C endpoint: mean survival time, dose: 168.0 mg/kg/injection, schedule: Q01DX001 (ip), vehicle: carboxymethylcellulose (CMC)) was 4 of 6 and the survivor count (T/C endpoint: mean survival time, dose: 252.0 mg/kg/injection, schedule: Q01DX001 (ip), vehicle: carboxymethylcellulose (CMC)) was 0 of 6. For the same compound, the survivor count (T/C endpoint: mean survival time, dose: 378.0 mg/kg/injection, schedule: Q01DX001 (ip), vehicle: carboxymethylcellulose (CMC)) was 0 of 6 and the survivor count (T/C endpoint: mean survival time, dose: 567.0 mg/kg/injection, schedule: Q01DX001 (ip), vehicle: carboxymethylcellulose (CMC)) was 0 of 6.
For `O=NN(CCCl)C(=O)Nc1ccc(Oc2ccc(NC(=O)N(CCCl)N=O)cc2)cc1`, the T/C (T/C endpoint: mean survival time, dose: 1000.0 mg/kg/injection, schedule: Q01DX001 (ip), vehicle: carboxymethylcellulose (CMC)) was 129 % of control.
